This note sets out measurements from paper PMC7017003.

Assay [1] addresses tumor necrosis factor receptor 3 with V5 tag (human) (UniProt P36941). The experiment in a line: co-IP; anti-V5-tag antibody beads with 100 µg lysate of co-transfected HEK293 cells, 2 h at 4 °C, washed thrice with TBS; immunoblot for OSM and V5; cells untreated or exposed to methylmercuric chloride for 6 h.
Assay [2] deals with T1, TNFR3-V5 with the extracellular domain deleted (human) (UniProt P36941).
T1 sequence: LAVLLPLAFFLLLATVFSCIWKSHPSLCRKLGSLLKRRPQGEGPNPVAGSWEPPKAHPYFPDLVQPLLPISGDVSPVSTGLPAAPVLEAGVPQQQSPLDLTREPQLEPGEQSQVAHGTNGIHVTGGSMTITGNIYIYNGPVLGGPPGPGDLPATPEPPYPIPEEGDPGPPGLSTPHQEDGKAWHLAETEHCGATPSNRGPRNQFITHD
The assay is described as above.

These are yes or no findings as the source states them, for the method shown. In cells and extracts the contact can be indirect. Some entries that bind do so weakly or less than the wild type. For some assays here: Where a sequence is shown, tags or fusion partners need not be part of it.

B1: oncostatin M (ligand, UniProt P13725 26-221)
chain: AAIGSCSKEYRVLLGQLQKQTDLMQDTSRLLDPYIRIQGLDVPKLREHCRERPGAFPSEETLRGLGRRGFLQTLNATLGCVLHRLADLEQRLPKAQDLERSGLNIEDLEKLQMARPNILGLRNNIYCMAQLLDNSDTAEPTKAGRGASQPPTPTPASDAFQRKLEGCRFLHGYHRFMHSVGRVFSKWGESPNRSRR
B1: the binding entry in assay [1] was “binds”; in assay [2], “no binding”.
